Assay in all cases: co-IP
The target of experiment [1] is KSHV replication and transcription activator (K-RTA), endogenous in induced BC1 cells (Kaposi's sarcoma-associated herpesvirus (endogenous in BC1)) (UniProt F5HCV3).
Experiment [2] deals with FLAG-EBV-Z-DL (EBV-Z with deletion of the leucine zipper region) (Epstein-Barr virus) (UniProt P03206).
Experiment [3] deals with EBV BZLF1 gene product (EBV-Z), endogenous in induced BC1 cells (Epstein-Barr virus (endogenous in BC1)) (UniProt P03206).

By UniProt entry, the sequences of proteins in these tests, tags left out.
UniProt F5HCV3: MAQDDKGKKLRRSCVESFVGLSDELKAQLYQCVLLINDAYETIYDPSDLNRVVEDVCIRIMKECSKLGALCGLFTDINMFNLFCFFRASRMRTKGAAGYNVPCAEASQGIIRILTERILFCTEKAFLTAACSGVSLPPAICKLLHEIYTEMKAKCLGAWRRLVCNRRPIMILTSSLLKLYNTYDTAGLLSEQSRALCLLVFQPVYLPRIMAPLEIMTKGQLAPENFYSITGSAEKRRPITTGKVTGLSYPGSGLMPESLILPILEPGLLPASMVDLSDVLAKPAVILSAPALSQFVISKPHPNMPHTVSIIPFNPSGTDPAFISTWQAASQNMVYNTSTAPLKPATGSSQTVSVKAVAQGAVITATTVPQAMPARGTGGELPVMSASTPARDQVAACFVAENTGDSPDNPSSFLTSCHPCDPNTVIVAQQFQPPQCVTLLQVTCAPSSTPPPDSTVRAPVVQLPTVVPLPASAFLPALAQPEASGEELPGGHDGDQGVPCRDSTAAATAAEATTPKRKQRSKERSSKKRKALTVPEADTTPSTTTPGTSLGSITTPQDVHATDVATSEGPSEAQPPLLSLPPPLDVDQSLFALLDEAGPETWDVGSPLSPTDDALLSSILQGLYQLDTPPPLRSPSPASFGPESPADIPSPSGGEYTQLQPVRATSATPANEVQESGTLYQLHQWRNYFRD

No constants are given. Whether binding was seen depends on the method and setting. In cells and extracts the contact can be indirect. Some binding calls cover weakened binding; strength is not graded here.

On to “EBV BZLF1 gene product (EBV-Z), endogenous in induced BC1 cells (from UniProt P03206 1-245)”, for which, in experiment [1], the binding result is “binds”.
For “K-RTA (wild type, from expression plasmid) (from UniProt F5HCV3 1-691)”, the binding entry in experiment [2] is recorded as “no binding”.
For the substance “KSHV replication and transcription activator (K-RTA), endogenous in induced BC1 cells (from UniProt F5HCV3 1-691)”, the binding entry in experiment [3] is “binds”.

These data come from publication PMC2215330.
